Measured values reported in patent publication US20130071397A1.
No constants are given. Whether binding was seen depends on the method and setting. Some binding calls cover weakened binding; strength is not graded here.

Experiments:
[1] = target: PDGFRβ E390A mutant (flag-tagged) (human) (UniProt P09619); assay: covalent crosslinking of PDGF-stimulated MEFs
[2] = target: PDGFRβ E390A mutant (flag-tagged) (human) (UniProt P09619); assay: DSS crosslinking of PDGF-treated MEFs, Ip: PDGFR, ib: Flag; receptor homodimer formed in the presence of PDGF BB
[3] = target: PDGFRβ E390A mutant (flag-tagged) (human) (UniProt P09619); assay: DSS crosslinking of PDGF-treated MEFs, immunoprecipitation with anti-PDGFR, immunoblot with anti-flag; receptor homodimer formed in the presence of PDGF BB
[4] = target: PDGFRβ E390A mutant (flag-tagged) (human) (UniProt P09619); assay: DSS crosslinking of PDGF-stimulated MEFs, IP and anti-flag immunoblot
[5] = target: wild type PDGFRβ with C-terminal flag-tag expressed in PDGFR-deficient MEFs (human) (UniProt P09619); assay: DSS crosslinking of PDGF-treated MEFs, Ip: PDGFR, ib: Flag; receptor homodimer formed in the presence of PDGF BB
[6] = target: wild type PDGFRβ with C-terminal flag-tag expressed in PDGFR-deficient MEFs (human) (UniProt P09619); assay: DSS crosslinking of PDGF-treated MEFs, immunoprecipitation with anti-PDGFR, immunoblot with anti-flag; receptor homodimer formed in the presence of PDGF BB
[7] = target: wild type PDGFRβ with C-terminal flag-tag expressed in PDGFR-deficient MEFs (human) (UniProt P09619); assay: DSS crosslinking of PDGF-stimulated MEFs, IP and anti-flag immunoblot

Measured: binding

PDGFRβ E390A mutant (flag-tagged) (from UniProt P09619 33-1106) (receptor)
binds: [1] | [2] | [3] | [4]

wild type PDGFRβ with C-terminal flag-tag expressed in PDGFR-deficient MEFs (from UniProt P09619 33-1106) (receptor)
binds: [5] | [6] | [7]
